Results are given in words; binding and its absence hold for the method and conditions named. Binding seen in cells or lysates may run through a third protein. Some binding calls cover weakened binding; strength is not graded here.
Biological target: T1, biotinylated Noxa peptide (18–43 residues) (UniProt Q13794)
T1 sequence (peptide, biotin, position not stated): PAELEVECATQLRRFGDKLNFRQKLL
Experiment: pull-down; biotinylated Noxa peptide incubated overnight at 4 °C with pre-cleared 2LMP lysate (1 mg/mL, CHAPS buffer); pulled down with agarose beads; western blot for Mcl-1; only the target purified

The chains behind the UniProt entries cited, without tags or fusion partners.
UniProt Q07820: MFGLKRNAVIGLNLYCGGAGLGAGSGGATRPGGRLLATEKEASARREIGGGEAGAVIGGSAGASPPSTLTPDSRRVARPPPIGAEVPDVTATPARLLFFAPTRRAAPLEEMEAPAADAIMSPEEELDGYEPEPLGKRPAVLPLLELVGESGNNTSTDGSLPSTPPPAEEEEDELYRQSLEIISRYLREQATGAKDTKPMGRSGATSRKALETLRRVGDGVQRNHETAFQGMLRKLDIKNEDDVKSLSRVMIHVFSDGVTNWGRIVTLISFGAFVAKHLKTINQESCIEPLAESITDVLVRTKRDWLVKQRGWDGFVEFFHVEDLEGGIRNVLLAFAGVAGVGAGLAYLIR

endogenous Mcl-1 (2LMP cells) (from UniProt Q07820 1-350)
binding: binds
